In PMC2825241, “Uptake of purines in Plasmodium falciparum-infected human erythrocytes is mostly mediated by the human Equilibrative Nucleoside Transporter and the human Facilitative Nucleobase Transporter” (2010) one finds Ki data, which are given here for 1 compound.

This assay concerns the target human facilitative nucleobase transporter (hFNT1).

Regarding `NS(=O)(=O)c1cc(C(=O)O)c(NCc2ccco2)cc1Cl` [furosemide], the Ki (in general, the equilibrium dissociation constant of an inhibitor or competing ligand from its target) stood at 9.1 ± 1.7 µM.
